# Measured values taken from the supplement of paper PMC11438910.
# This is one part of the list. The signal is at background level for most entries.
# B1: 4-127.3 (protein)
# chain 1: QVQLQESGPGLVKPSETLSLTCAVSGYSISSGYGWSWIRQPPGKGLEWIGYIGGSSGSTNYNPSLKSRVTVSKDTSKNQFSLKLSSVTAADTAVYYCARADYCTSTTCYGPNRFDVWGPGVLVTVSS
# chain 2: QAAPTQSPSVSGSAGQSVTISCTGSSSDIGYYNGVSWYQHHPGKAPKLMIYEVSKRPSGVSNRFSGSKSGNTASLTISGLQAADEADYFCSSYAGSGTYIFGAGTRLTVL
# Assays:
# Test in all cases: fluorescence intensity of antibody binding to polysaccharide-coupled beads; higher = stronger binding
# [1] = molecular target: pneumococcal polysaccharide Pn41A
# Experimental: (§1)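 Recombinant rhesus-murine chimeric IgG1 antibodies were tested against antigen-coupled MagPlex beads in a 96-plex Luminex direct immunoassay (dLIA). The beads carried pneumococcal capsular polysaccharides of 93 serotypes plus C-polysaccharides. Antibody was added at 0.1–12,500 ng/mL for 1 h, then PE anti-mouse IgG, and net MFI was read on a Bio-Plex 3D. Only the rhesus variable regions are printed; constant regions are murine IgG1/kappa/lambda, and the signal peptide is MGWSCIILFLVATATGVHS.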
# [2] = molecular target: pneumococcal polysaccharide Pn41F
# Experimental: as §1
# [3] = molecular target: pneumococcal polysaccharide Pn42
# Experimental: as §1
# [4] = molecular target: pneumococcal polysaccharide Pn43
# Experimental: as §1
# [5] = molecular target: pneumococcal polysaccharide Pn44
# Experimental: as §1
# [6] = molecular target: pneumococcal polysaccharide Pn45
# Experimental: as §1
# [7] = molecular target: pneumococcal polysaccharide Pn46
# Experimental: as §1
# [8] = molecular target: pneumococcal polysaccharide Pn47A
# Experimental: as §1
# [9] = molecular target: pneumococcal polysaccharide Pn47F
# Experimental: as §1
# [10] = molecular target: pneumococcal polysaccharide Pn48
# Experimental: as §1
# [11] = molecular target: pneumococcal polysaccharide Pn5
# Experimental: as §1
# [12] = molecular target: pneumococcal polysaccharide Pn6A
# Experimental: as §1
# [13] = molecular target: pneumococcal polysaccharide Pn6B
# Experimental: as §1
# [14] = molecular target: pneumococcal polysaccharide Pn6C
# Experimental: as §1
# [15] = molecular target: pneumococcal polysaccharide Pn6D
# Experimental: as §1
# [16] = molecular target: pneumococcal polysaccharide Pn7A
# Experimental: as §1
# [17] = molecular target: pneumococcal polysaccharide Pn7B
# Experimental: as §1
# [18] = molecular target: pneumococcal polysaccharide Pn7C
# Experimental: as §1
# [19] = molecular target: pneumococcal polysaccharide Pn7F
# Experimental: as §1
# [20] = molecular target: pneumococcal polysaccharide Pn8
# Experimental: as §1
# [21] = molecular target: pneumococcal polysaccharide Pn9A
# Experimental: as §1
# [22] = molecular target: pneumococcal polysaccharide Pn9L
# Experimental: as §1
# [23] = molecular target: pneumococcal polysaccharide Pn9N
# Experimental: as §1
# [24] = antibody concentration 2.8593 ng/mL
# [25] = antibody concentration 15.2894 ng/mL
# [26] = antibody concentration 81.7561 ng/mL
# [27] = antibody concentration 437.17 ng/mL
# [28] = antibody concentration 2337.65 ng/mL
# [29] = antibody concentration 12500 ng/mL
# [30] = antibody concentration 0.1 ng/mL
# [31] = antibody concentration 0.534724 ng/mL
binder,measurement,setting,value
B1,fluorescence intensity,[1]; [24],24 MFI
same,fluorescence intensity,[1]; [25],24 MFI
same,fluorescence intensity,[1]; [26],24.5 MFI
same,fluorescence intensity,[1]; [27],24.5 MFI
same,fluorescence intensity,[1]; [28],26 MFI
same,fluorescence intensity,[1]; [29],31.5 MFI
same,fluorescence intensity,[2]; [30],14 MFI
same,fluorescence intensity,[2]; [31],12.8 MFI
same,fluorescence intensity,[2]; [24],13.5 MFI
same,fluorescence intensity,[2]; [25],13 MFI
same,fluorescence intensity,[2]; [26],14 MFI
same,fluorescence intensity,[2]; [27],13.5 MFI
same,fluorescence intensity,[2]; [28],14 MFI
same,fluorescence intensity,[2]; [29],21 MFI
same,fluorescence intensity,[3]; [30],12 MFI
same,fluorescence intensity,[3]; [31],12 MFI
same,fluorescence intensity,[3]; [24],11.5 MFI
same,fluorescence intensity,[3]; [25],11.5 MFI
same,fluorescence intensity,[3]; [26],11.5 MFI
same,fluorescence intensity,[3]; [27],12.5 MFI
same,fluorescence intensity,[3]; [28],15 MFI
same,fluorescence intensity,[3]; [29],26.5 MFI
same,fluorescence intensity,[4]; [30],15.5 MFI
same,fluorescence intensity,[4]; [31],16 MFI
same,fluorescence intensity,[4]; [24],16.2 MFI
same,fluorescence intensity,[4]; [25],16.5 MFI
same,fluorescence intensity,[4]; [26],16.5 MFI
same,fluorescence intensity,[4]; [27],18 MFI
same,fluorescence intensity,[4]; [28],26 MFI
same,fluorescence intensity,[4]; [29],89.5 MFI
same,fluorescence intensity,[5]; [30],24.5 MFI
same,fluorescence intensity,[5]; [31],25.5 MFI
same,fluorescence intensity,[5]; [24],26 MFI
same,fluorescence intensity,[5]; [25],27 MFI
same,fluorescence intensity,[5]; [26],26 MFI
same,fluorescence intensity,[5]; [27],28 MFI
same,fluorescence intensity,[5]; [28],28 MFI
same,fluorescence intensity,[5]; [29],37 MFI
same,fluorescence intensity,[6]; [30],12 MFI
same,fluorescence intensity,[6]; [31],11 MFI
same,fluorescence intensity,[6]; [24],10.5 MFI
same,fluorescence intensity,[6]; [25],10.5 MFI
same,fluorescence intensity,[6]; [26],12 MFI
same,fluorescence intensity,[6]; [27],11 MFI
same,fluorescence intensity,[6]; [28],13.5 MFI
same,fluorescence intensity,[6]; [29],18.8 MFI
same,fluorescence intensity,[7]; [30],24 MFI
same,fluorescence intensity,[7]; [31],22.8 MFI
same,fluorescence intensity,[7]; [24],24.5 MFI
same,fluorescence intensity,[7]; [25],23.8 MFI
same,fluorescence intensity,[7]; [26],23 MFI
same,fluorescence intensity,[7]; [27],24 MFI
same,fluorescence intensity,[7]; [28],25.5 MFI
same,fluorescence intensity,[7]; [29],54 MFI
same,fluorescence intensity,[8]; [30],14.5 MFI
same,fluorescence intensity,[8]; [31],16 MFI
same,fluorescence intensity,[8]; [24],15 MFI
same,fluorescence intensity,[8]; [25],16 MFI
same,fluorescence intensity,[8]; [26],16 MFI
same,fluorescence intensity,[8]; [27],15.8 MFI
same,fluorescence intensity,[8]; [28],17 MFI
same,fluorescence intensity,[8]; [29],23.8 MFI
same,fluorescence intensity,[9]; [30],14 MFI
same,fluorescence intensity,[9]; [31],12 MFI
same,fluorescence intensity,[9]; [24],11.8 MFI
same,fluorescence intensity,[9]; [25],13 MFI
same,fluorescence intensity,[9]; [26],13.5 MFI
same,fluorescence intensity,[9]; [27],13 MFI
same,fluorescence intensity,[9]; [28],14 MFI
same,fluorescence intensity,[9]; [29],38.5 MFI
same,fluorescence intensity,[10]; [30],21.5 MFI
same,fluorescence intensity,[10]; [31],22 MFI
same,fluorescence intensity,[10]; [24],21.5 MFI
same,fluorescence intensity,[10]; [25],21.8 MFI
same,fluorescence intensity,[10]; [26],23 MFI
same,fluorescence intensity,[10]; [27],23.8 MFI
same,fluorescence intensity,[10]; [28],31 MFI
same,fluorescence intensity,[10]; [29],43.2 MFI
same,fluorescence intensity,[11]; [30],9 MFI
same,fluorescence intensity,[11]; [31],8.5 MFI
same,fluorescence intensity,[11]; [24],8.5 MFI
same,fluorescence intensity,[11]; [25],9 MFI
same,fluorescence intensity,[11]; [26],8.5 MFI
same,fluorescence intensity,[11]; [27],10.5 MFI
same,fluorescence intensity,[11]; [28],10.5 MFI
same,fluorescence intensity,[11]; [29],43 MFI
same,fluorescence intensity,[12]; [30],24.8 MFI
same,fluorescence intensity,[12]; [31],22.8 MFI
same,fluorescence intensity,[12]; [24],22.5 MFI
same,fluorescence intensity,[12]; [25],21.5 MFI
same,fluorescence intensity,[12]; [26],23 MFI
same,fluorescence intensity,[12]; [27],22.5 MFI
same,fluorescence intensity,[12]; [28],26 MFI
same,fluorescence intensity,[12]; [29],37.5 MFI
same,fluorescence intensity,[13]; [30],20 MFI
same,fluorescence intensity,[13]; [31],19.5 MFI
same,fluorescence intensity,[13]; [24],20.8 MFI
same,fluorescence intensity,[13]; [25],20.5 MFI
same,fluorescence intensity,[13]; [26],20 MFI
same,fluorescence intensity,[13]; [27],20.5 MFI
same,fluorescence intensity,[13]; [28],23.5 MFI
same,fluorescence intensity,[13]; [29],35 MFI
same,fluorescence intensity,[14]; [30],21.5 MFI
same,fluorescence intensity,[14]; [31],34 MFI
same,fluorescence intensity,[14]; [24],58.5 MFI
same,fluorescence intensity,[14]; [25],76.5 MFI
same,fluorescence intensity,[14]; [26],65 MFI
same,fluorescence intensity,[14]; [27],73.8 MFI
same,fluorescence intensity,[14]; [28],81.2 MFI
same,fluorescence intensity,[14]; [29],108 MFI
same,fluorescence intensity,[15]; [30],18.8 MFI
same,fluorescence intensity,[15]; [31],19 MFI
same,fluorescence intensity,[15]; [24],16.5 MFI
same,fluorescence intensity,[15]; [25],18.2 MFI
same,fluorescence intensity,[15]; [26],18 MFI
same,fluorescence intensity,[15]; [27],19 MFI
same,fluorescence intensity,[15]; [28],20 MFI
same,fluorescence intensity,[15]; [29],23.5 MFI
same,fluorescence intensity,[16]; [30],21.5 MFI
same,fluorescence intensity,[16]; [31],19.8 MFI
same,fluorescence intensity,[16]; [24],20.5 MFI
same,fluorescence intensity,[16]; [25],21.5 MFI
same,fluorescence intensity,[16]; [26],20.5 MFI
same,fluorescence intensity,[16]; [27],21.5 MFI
same,fluorescence intensity,[16]; [28],33.5 MFI
same,fluorescence intensity,[16]; [29],117 MFI
same,fluorescence intensity,[17]; [30],17.2 MFI
same,fluorescence intensity,[17]; [31],17.5 MFI
same,fluorescence intensity,[17]; [24],16 MFI
same,fluorescence intensity,[17]; [25],17.2 MFI
same,fluorescence intensity,[17]; [26],16.5 MFI
same,fluorescence intensity,[17]; [27],16 MFI
same,fluorescence intensity,[17]; [28],19.5 MFI
same,fluorescence intensity,[17]; [29],35.5 MFI
same,fluorescence intensity,[18]; [30],16.2 MFI
same,fluorescence intensity,[18]; [31],16 MFI
same,fluorescence intensity,[18]; [24],17 MFI
same,fluorescence intensity,[18]; [25],15.5 MFI
same,fluorescence intensity,[18]; [26],17.8 MFI
same,fluorescence intensity,[18]; [27],17.5 MFI
same,fluorescence intensity,[18]; [28],17.5 MFI
same,fluorescence intensity,[18]; [29],31 MFI
same,fluorescence intensity,[19]; [30],15.5 MFI
same,fluorescence intensity,[19]; [31],15 MFI
same,fluorescence intensity,[19]; [24],14.5 MFI
same,fluorescence intensity,[19]; [25],16 MFI
same,fluorescence intensity,[19]; [26],15.5 MFI
same,fluorescence intensity,[19]; [27],18 MFI
same,fluorescence intensity,[19]; [28],26 MFI
same,fluorescence intensity,[19]; [29],80.2 MFI
same,fluorescence intensity,[20]; [30],22 MFI
same,fluorescence intensity,[20]; [31],22 MFI
same,fluorescence intensity,[20]; [24],21 MFI
same,fluorescence intensity,[20]; [25],22 MFI
same,fluorescence intensity,[20]; [26],23 MFI
same,fluorescence intensity,[20]; [27],25 MFI
same,fluorescence intensity,[20]; [28],30 MFI
same,fluorescence intensity,[20]; [29],47.2 MFI
same,fluorescence intensity,[21]; [30],21 MFI
same,fluorescence intensity,[21]; [31],21 MFI
same,fluorescence intensity,[21]; [24],21 MFI
same,fluorescence intensity,[21]; [25],19.5 MFI
same,fluorescence intensity,[21]; [26],19 MFI
same,fluorescence intensity,[21]; [27],19.8 MFI
same,fluorescence intensity,[21]; [28],22 MFI
same,fluorescence intensity,[21]; [29],39.5 MFI
same,fluorescence intensity,[22]; [30],18 MFI
same,fluorescence intensity,[22]; [31],18.5 MFI
same,fluorescence intensity,[22]; [24],17 MFI
same,fluorescence intensity,[22]; [25],17.5 MFI
same,fluorescence intensity,[22]; [26],16.5 MFI
same,fluorescence intensity,[22]; [27],17.2 MFI
same,fluorescence intensity,[22]; [28],19.2 MFI
same,fluorescence intensity,[22]; [29],29 MFI
same,fluorescence intensity,[23]; [30],15.8 MFI
same,fluorescence intensity,[23]; [31],16.2 MFI
same,fluorescence intensity,[23]; [24],15.5 MFI
same,fluorescence intensity,[23]; [25],15.5 MFI
same,fluorescence intensity,[23]; [26],17 MFI
same,fluorescence intensity,[23]; [27],16.5 MFI

# Copied from the results shown (seven entries):
binder,measurement,setting,value
B1,fluorescence intensity,[1]; [27],24.5 MFI
same,fluorescence intensity,[1]; [28],26 MFI
same,fluorescence intensity,[1]; [29],31.5 MFI
same,fluorescence intensity,[2]; [30],14 MFI
same,fluorescence intensity,[2]; [31],12.8 MFI
same,fluorescence intensity,[2]; [24],13.5 MFI
same,fluorescence intensity,[2]; [25],13 MFI

# 3 entries from above in another layout.
binder | measurement | setting | value
B1 | fluorescence intensity | [17]; [31] | 17.5 MFI
same | fluorescence intensity | [17]; [24] | 16 MFI
same | fluorescence intensity | [17]; [25] | 17.2 MFI
